Here are results for one substance from paper PMC9975675.

These are yes or no findings as the source states them, for the method shown. Binding calls can cover weak binding; strength is not graded here. Where a sequence is shown, tags or fusion partners need not be part of it.

The target in the experiment is T1, GST-IRF1-N(aa 1-163) (UniProt P10914).
T1 sequence: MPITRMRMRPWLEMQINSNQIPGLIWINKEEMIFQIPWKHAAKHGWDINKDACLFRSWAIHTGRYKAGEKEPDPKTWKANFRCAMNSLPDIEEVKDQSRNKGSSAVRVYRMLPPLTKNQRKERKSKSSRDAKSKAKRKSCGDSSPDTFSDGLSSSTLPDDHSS
The experiment can be described thus: pull-down; GST-IRF1 fusion proteins on glutathione-conjugated beads, with MUC1-CD (GST removed by thrombin); 2 h at room temperature; adsorbates detected by immunoblotting; both purified.

As for “MUC1-CD (MUC1-C cytoplasmic 72 aa domain, GST removed) (domain or fragment)”, the binding entry is on record as “binds”.
